Measured values as given in the supplement of paper PMC12595434, “Development of retinoid nuclear receptor pathway antagonists through targeting aldehyde dehydrogenase 1A3” (iScience, 2025).
The other results are listed elsewhere or left out. Single values of this set are uncertain.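 Tm was set to 64 °C where no melting was found, and many curves are irregular.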

Protein sequences, listed by entry. Tags and fused reporters are not part of them. Lines headed by an entry give the natural chain unless they say otherwise; changes in a name come on top.
UniProt O75494: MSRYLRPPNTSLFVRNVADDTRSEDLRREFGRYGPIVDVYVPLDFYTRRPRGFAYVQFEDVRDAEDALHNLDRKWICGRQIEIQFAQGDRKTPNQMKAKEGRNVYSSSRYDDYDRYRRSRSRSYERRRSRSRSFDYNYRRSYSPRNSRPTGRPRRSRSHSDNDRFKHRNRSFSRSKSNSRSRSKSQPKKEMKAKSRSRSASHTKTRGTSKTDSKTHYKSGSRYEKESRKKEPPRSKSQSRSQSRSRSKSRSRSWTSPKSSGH
UniProt O75525: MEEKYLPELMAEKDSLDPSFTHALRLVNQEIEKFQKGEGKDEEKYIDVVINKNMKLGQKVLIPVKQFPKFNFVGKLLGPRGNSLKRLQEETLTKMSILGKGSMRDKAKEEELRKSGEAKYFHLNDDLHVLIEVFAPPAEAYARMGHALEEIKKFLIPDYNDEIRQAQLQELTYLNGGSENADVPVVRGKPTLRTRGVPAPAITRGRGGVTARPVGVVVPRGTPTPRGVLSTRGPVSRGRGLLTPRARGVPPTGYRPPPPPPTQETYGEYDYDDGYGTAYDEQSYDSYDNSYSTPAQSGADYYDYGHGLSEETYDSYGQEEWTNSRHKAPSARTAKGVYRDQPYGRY
UniProt O60499: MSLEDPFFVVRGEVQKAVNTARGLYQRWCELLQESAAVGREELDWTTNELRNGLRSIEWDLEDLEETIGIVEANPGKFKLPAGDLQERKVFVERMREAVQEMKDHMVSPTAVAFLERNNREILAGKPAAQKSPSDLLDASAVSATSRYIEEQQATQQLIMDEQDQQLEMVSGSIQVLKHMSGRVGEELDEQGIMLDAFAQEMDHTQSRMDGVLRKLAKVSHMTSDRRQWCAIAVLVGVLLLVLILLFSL
UniProt O75600: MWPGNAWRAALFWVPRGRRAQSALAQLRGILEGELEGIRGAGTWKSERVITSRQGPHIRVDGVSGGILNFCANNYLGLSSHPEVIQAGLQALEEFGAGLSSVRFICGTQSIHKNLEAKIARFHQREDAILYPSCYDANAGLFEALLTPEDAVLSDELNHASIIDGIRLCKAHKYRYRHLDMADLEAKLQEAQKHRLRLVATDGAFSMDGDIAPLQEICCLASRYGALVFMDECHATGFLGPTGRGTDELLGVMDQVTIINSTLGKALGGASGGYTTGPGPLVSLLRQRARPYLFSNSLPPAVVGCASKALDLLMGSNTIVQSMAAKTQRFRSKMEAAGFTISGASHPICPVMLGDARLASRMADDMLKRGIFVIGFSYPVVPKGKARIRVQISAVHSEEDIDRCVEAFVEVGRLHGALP
UniProt O43684, whole entry: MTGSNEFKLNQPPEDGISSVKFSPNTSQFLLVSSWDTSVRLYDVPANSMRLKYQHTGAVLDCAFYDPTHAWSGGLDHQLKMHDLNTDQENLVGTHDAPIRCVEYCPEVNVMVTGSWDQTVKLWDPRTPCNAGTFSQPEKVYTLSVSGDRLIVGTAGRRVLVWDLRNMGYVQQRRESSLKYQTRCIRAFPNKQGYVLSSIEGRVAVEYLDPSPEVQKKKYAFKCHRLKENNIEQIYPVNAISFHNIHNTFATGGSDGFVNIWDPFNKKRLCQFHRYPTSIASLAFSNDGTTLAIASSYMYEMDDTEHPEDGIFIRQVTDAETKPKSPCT
UniProt O60664: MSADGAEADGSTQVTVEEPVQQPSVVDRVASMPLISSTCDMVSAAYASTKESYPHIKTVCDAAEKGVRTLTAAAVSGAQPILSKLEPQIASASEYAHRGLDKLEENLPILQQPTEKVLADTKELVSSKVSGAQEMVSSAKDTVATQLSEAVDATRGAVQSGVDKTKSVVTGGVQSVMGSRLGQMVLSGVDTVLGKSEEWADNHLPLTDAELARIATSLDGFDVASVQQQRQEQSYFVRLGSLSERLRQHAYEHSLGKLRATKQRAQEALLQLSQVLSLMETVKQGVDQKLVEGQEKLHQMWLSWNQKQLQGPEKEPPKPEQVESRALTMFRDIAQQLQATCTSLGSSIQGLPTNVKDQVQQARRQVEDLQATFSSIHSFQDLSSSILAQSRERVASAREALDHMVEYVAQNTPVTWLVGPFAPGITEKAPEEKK
UniProt O75145: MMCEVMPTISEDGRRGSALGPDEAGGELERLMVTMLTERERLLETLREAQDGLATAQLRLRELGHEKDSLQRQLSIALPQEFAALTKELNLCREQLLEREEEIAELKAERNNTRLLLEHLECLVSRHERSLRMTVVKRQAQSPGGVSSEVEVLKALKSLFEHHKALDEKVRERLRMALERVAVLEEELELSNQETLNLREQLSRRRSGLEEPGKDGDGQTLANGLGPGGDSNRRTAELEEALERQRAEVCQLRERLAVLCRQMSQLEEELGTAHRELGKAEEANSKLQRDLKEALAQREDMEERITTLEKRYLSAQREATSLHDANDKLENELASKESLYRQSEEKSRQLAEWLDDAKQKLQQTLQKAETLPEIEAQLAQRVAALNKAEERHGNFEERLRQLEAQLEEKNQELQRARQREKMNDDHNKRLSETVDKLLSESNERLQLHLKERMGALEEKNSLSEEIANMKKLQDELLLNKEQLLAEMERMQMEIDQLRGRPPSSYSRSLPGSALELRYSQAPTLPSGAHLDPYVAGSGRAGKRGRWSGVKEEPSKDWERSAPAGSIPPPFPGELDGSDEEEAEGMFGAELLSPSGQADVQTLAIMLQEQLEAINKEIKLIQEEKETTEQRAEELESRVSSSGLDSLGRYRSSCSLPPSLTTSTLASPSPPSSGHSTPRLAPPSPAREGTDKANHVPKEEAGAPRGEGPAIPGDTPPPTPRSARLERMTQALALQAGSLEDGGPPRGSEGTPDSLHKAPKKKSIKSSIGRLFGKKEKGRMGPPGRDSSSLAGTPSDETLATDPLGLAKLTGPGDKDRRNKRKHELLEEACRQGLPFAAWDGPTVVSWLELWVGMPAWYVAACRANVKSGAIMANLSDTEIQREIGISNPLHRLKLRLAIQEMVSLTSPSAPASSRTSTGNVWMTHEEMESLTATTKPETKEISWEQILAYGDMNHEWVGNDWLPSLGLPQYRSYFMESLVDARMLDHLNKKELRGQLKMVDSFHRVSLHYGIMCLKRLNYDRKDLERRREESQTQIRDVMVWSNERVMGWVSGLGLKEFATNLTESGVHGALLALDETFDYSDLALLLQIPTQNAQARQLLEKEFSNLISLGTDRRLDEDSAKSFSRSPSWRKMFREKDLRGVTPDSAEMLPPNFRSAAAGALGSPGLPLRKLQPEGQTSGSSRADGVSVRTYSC
UniProt O75387: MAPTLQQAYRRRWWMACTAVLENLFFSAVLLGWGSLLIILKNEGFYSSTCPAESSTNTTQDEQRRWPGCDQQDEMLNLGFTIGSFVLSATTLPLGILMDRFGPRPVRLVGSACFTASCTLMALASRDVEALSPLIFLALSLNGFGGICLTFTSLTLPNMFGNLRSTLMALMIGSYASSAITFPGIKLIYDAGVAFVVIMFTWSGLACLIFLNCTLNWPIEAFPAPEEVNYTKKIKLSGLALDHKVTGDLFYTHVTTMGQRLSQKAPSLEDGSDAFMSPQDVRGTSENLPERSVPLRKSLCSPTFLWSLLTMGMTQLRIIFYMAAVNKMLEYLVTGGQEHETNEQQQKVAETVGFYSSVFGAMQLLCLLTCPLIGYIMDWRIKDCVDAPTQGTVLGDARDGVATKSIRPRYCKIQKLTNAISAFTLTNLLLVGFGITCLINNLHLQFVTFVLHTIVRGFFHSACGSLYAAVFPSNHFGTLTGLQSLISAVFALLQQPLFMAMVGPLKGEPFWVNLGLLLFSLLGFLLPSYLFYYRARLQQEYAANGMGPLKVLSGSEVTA
UniProt O60879: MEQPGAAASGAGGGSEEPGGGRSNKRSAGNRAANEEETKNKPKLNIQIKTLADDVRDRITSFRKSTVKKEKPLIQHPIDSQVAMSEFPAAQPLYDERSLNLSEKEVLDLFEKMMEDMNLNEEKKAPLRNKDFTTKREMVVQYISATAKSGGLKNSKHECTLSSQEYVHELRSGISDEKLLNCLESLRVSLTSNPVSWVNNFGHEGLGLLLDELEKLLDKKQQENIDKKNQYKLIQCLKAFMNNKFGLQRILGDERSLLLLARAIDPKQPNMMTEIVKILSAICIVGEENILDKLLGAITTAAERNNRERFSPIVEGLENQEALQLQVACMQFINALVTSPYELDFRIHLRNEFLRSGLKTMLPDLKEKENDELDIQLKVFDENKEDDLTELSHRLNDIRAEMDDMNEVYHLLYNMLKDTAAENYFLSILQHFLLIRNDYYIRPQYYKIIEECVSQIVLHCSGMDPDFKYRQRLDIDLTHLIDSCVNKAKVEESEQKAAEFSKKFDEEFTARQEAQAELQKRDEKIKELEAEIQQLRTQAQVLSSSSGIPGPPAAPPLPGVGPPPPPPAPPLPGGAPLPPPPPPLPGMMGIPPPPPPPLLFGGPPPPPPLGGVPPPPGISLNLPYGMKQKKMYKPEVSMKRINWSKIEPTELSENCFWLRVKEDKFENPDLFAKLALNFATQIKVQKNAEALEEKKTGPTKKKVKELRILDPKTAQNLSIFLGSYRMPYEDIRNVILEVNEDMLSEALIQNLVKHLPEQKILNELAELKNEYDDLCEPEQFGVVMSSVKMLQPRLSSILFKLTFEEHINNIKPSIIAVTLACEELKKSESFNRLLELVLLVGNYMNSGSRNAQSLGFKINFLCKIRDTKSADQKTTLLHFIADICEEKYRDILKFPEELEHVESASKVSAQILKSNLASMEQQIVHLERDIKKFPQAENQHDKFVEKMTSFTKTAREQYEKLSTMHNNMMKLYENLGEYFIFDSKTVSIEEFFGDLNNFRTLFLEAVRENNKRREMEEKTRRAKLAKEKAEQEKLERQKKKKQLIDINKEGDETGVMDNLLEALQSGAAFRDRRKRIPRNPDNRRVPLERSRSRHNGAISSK
UniProt O75808: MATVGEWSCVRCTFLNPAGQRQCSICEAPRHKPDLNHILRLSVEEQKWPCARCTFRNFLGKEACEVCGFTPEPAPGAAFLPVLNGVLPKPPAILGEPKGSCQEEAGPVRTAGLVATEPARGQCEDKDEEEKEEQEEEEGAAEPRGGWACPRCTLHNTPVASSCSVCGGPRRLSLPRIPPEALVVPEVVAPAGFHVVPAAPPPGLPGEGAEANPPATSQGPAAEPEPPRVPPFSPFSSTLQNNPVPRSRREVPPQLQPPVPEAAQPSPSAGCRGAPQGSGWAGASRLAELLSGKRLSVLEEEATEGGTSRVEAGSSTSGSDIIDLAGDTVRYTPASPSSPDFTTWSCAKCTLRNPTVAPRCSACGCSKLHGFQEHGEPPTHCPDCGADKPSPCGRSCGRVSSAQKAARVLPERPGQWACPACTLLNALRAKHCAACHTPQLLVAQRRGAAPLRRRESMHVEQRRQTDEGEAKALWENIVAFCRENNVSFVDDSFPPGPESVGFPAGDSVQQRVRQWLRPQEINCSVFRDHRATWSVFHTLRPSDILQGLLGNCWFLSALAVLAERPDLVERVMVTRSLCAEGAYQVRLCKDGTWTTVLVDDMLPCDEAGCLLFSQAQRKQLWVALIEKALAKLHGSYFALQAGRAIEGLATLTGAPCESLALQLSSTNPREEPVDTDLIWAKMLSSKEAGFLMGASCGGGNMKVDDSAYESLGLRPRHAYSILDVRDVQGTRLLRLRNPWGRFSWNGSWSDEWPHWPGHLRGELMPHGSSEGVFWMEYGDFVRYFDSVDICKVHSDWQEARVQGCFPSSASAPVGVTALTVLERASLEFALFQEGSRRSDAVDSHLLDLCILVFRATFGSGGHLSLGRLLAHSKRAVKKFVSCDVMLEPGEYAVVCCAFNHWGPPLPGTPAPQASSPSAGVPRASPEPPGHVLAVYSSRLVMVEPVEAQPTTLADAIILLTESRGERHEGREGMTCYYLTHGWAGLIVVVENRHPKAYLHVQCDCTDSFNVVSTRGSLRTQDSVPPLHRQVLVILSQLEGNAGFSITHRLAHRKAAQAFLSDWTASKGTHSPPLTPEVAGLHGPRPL
UniProt O60921: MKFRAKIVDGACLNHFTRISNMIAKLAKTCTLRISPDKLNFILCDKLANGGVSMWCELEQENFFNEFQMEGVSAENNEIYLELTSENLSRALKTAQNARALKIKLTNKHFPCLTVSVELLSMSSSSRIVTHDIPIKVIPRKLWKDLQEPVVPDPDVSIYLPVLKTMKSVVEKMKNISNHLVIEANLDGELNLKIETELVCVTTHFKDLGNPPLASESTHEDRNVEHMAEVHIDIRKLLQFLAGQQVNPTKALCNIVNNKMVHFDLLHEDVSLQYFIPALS
UniProt O75828: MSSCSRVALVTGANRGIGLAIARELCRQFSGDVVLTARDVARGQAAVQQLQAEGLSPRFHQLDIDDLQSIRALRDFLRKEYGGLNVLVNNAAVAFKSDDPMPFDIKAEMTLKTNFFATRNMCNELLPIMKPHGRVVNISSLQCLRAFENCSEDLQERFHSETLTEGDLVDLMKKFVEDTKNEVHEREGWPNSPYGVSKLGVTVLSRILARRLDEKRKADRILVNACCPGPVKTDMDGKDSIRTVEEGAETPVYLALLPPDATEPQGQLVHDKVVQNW

Compound: CCc1cnccc1C(=O)Nc1cc2c(cc1F)NC(=O)CC2
Test: melting temperature shift (DMSO Tm minus MBE1-treated Tm) in cellular thermal proteome profiling; higher = less thermal stabilization by MBE1 (negative = stabilized by MBE1)
Settings: A375

Target | melting temperature shift (MBE1 concentration: 100 nM) [°C] | melting temperature shift (MBE1 concentration: 1 uM) [°C]
SRSF10 (UniProt O75494) | -0.464 | -0.471
UniProt O75525 | -0.282 | -0.355
STX10 (UniProt O60499) | -1.24 | -0.409
GCAT (UniProt O75600) | -0.763 | -1.46
STRN (UniProt O43815) | -0.463 | 0.44
SH3BP5 (UniProt O60239) | 1.07 | 0.14
KDM1A (UniProt O60341) | -1.23 | -0.537
GMDS (UniProt O60547) | -0.127 | 1.49
HMMR (UniProt O75330) | -1.44 | 0.568
BUB3 (UniProt O43684) | -1.46 | 0.121
PLIN3 (UniProt O60664) | -2.69 | 0.716
UniProt O60512 | -0.722 | -1.18
IDH1 (UniProt O75874) | -0.397 | 0.507
SYNJ1 (UniProt O43426) | 0.824 | 0.195
DENND4B (UniProt O75064) | -0.0916 | 0.427
UniProt O75145 | -2.95 | 15.8
UniProt O75387 | -5.2 | -3.3
UniProt O60879 | -0.622 | -0.565
CAPN15 (UniProt O75808) | 2.69 | -0.127
PLOD3 (UniProt O60568) | -0.932 | 0.416
HUS1 (UniProt O60921) | -1.68 | 1.69
CBR3 (UniProt O75828) | -0.00611 | 0.519

Taken from above:
Value of GCAT (UniProt O75600) under melting temperature shift (MBE1 concentration: 1 uM) [°C]: -1.46
Value of SYNJ1 (UniProt O43426) under melting temperature shift (MBE1 concentration: 100 nM) [°C]: 0.824
